Measured values published in patent US20050256134A1, “Use of creatine analogues and creatine kinase modulators for the prevention and treatment of glucose metabolic disorders” (AVICENA GROUP, INC., priority 1995, published 2005).
Further values from the same series stand in other lists.

Tested on: terminal cancer patients
Test: Phase I/II open label dose escalation study, glucose levels, 3 hour continuous infusion
Format: in vivo, human
Method: Cyclocreatine was tested in humans in a phase I/II open label dose escalation study. […] Cyclocreatine was administered at doses that ranged from 10 mg/Kg to 100 mg/Kg. The schedule of administration of cyclocreatine is described in Table 4.
Cohorts of 3 patients were administered drug at each dose level, via a 3 hour continuous infusion in one liter volume of saline. The first week patients received cyclocreatine once, the second week patients received cyclocreatine twice, the third week three times, the fourth week four times, the fifth week five times. On weeks six and seven, no drug was administered to allow the drug to wash out. On week eight, cyclocreatine was given five times. The study included a total of 23 patients (18 male, 5 female) with a median age of 71 years (range 54-85). The patients had different types of malignancies. Eligibility requirements included patients who have failed standard therapy or for whom no therapy was available, normal organ function, have recovered from prior therapies, probability of survival of greater than three months. Reasons for exclusion included: major surgery, life threatening concurrent illness and CNS metastasis. Blood samples were collected at baseline and 1 day before and after the last weekly drug administration on days 1, 7, 9, 14, 17, 21, 25, 28, 33, 40, 47, 49, 54, 61, and 69. Glucose levels were determined for these collected blood samples. […] Not all patients experienced a significant drop in glucose although the trend was there. FIGS. 14 and 15 illustrate graphically individual patients' glucose levels upon treatment with 60 mg/Kg or 80 mg/Kg cyclocreatine. Patient (A) at the 80 mg/Kg dose was diabetic and had many serious complications due to their disease. […] It should be noted that an insufficient number of readings was made shortly after drug administration. It is interesting to note that several patients who were diabetic or had higher glucose levels than normal did respond to cyclocreatine, onen example being illustrated in FIG. 16.

For NC1=NCCN1CC(=O)O [cyclocreatine], the Glucose (Ave, 10 mg/kg, Study Day 0) was 123 mg/dL, the Glucose (Ave, 10 mg/kg, Study Day 1) was 119 mg/dL and the Glucose (Ave, 10 mg/kg, Study Day 7) was 123 mg/dL. For the same molecule, the Glucose (Ave, 10 mg/kg, Study Day 9) was 119 mg/dL, the Glucose (Ave, 10 mg/kg, Study Day 14) was 110 mg/dL and the Glucose (Ave, 10 mg/kg, Study Day 17) was 83 mg/dL. It also gave a Glucose (Ave, 10 mg/kg, Study Day 21) of 138 mg/dL, a Glucose (Ave, 10 mg/kg, Study Day 25) of 102 mg/dL and a Glucose (Ave, 10 mg/kg, Study Day 28) of 84 mg/dL. For the same molecule, the Glucose (Ave, 10 mg/kg, Study Day 33) was 86 mg/dL, the Glucose (Ave, 10 mg/kg, Study Day 40) was 121 mg/dL and the Glucose (Ave, 10 mg/kg, Study Day 47) was 97 mg/dL. The Glucose (Ave, 10 mg/kg, Study Day 49) was 164 mg/dL, the Glucose (Ave, 10 mg/kg, Study Day 54) was 102 mg/dL and the Glucose (Ave, 10 mg/kg, Study Day 61) was 131 mg/dL. The Glucose (Ave, 10 mg/kg, Study Day 69) was 151 mg/dL, the Glucose (Ave, 20 mg/Kg, Study Day 0) was 120 mg/dL and the Glucose (Ave, 20 mg/Kg, Study Day 1) was 129 mg/dL. For the same molecule, the Glucose (Ave, 20 mg/Kg, Study Day 7) was 110 mg/dL, the Glucose (Ave, 20 mg/Kg, Study Day 9) was 112 mg/dL and the Glucose (Ave, 20 mg/Kg, Study Day 14) was 144 mg/dL. For the same molecule, the Glucose (Ave, 20 mg/Kg, Study Day 17) was 89 mg/dL, the Glucose (Ave, 20 mg/Kg, Study Day 21) was 128 mg/dL and the Glucose (Ave, 20 mg/Kg, Study Day 25) was 97 mg/dL. The Glucose (Ave, 20 mg/Kg, Study Day 28) was 127 mg/dL, the Glucose (Ave, 20 mg/Kg, Study Day 33) was 101 mg/dL and the Glucose (Ave, 20 mg/Kg, Study Day 40) was 112 mg/dL. It also gave a Glucose (Ave, 20 mg/Kg, Study Day 47) of 129 mg/dL, a Glucose (Ave, 20 mg/Kg, Study Day 49) of 126 mg/dL and a Glucose (Ave, 20 mg/Kg, Study Day 54) of 90 mg/dL. It also gave a Glucose (Ave, 20 mg/Kg, Study Day 61) of 101 mg/dL, a Glucose (Ave, 20 mg/Kg, Study Day 69) of 108 mg/dL and a Glucose (Ave, 60 mg/Kg, Study Day 0) of 116 mg/dL. The Glucose (Ave, 60 mg/Kg, Study Day 1) was 39 mg/dL, the Glucose (Ave, 60 mg/Kg, Study Day 9) was 91 mg/dL and the Glucose (Ave, 60 mg/Kg, Study Day 14) was 102 mg/dL. It also gave a Glucose (Ave, 60 mg/Kg, Study Day 17) of 36 mg/dL, a Glucose (Ave, 60 mg/Kg, Study Day 21) of 103 mg/dL and a Glucose (Ave, 60 mg/Kg, Study Day 25) of 78 mg/dL. The Glucose (Ave, 60 mg/Kg, Study Day 28) was 65 mg/dL, the Glucose (Ave, 60 mg/Kg, Study Day 33) was 99 mg/dL and the Glucose (Ave, 60 mg/Kg, Study Day 40) was 75 mg/dL. For the same molecule, the Glucose (Ave, 60 mg/Kg, Study Day 47) was 119 mg/dL, the Glucose (Ave, 60 mg/Kg, Study Day 49) was 102 mg/dL and the Glucose (Ave, 60 mg/Kg, Study Day 54) was 72 mg/dL. For the same molecule, the Glucose (Ave, 60 mg/Kg, Study Day 61) was 85 mg/dL, the Glucose (Ave, 60 mg/Kg, Study Day 69) was 127 mg/dL and the Glucose (Ave, 80 mg/Kg, Study Day 0) was 151 mg/dL. The Glucose (Ave, 80 mg/Kg, Study Day 1) was 73 mg/dL, the Glucose (Ave, 80 mg/Kg, Study Day 7) was 146 mg/dL and the Glucose (Ave, 80 mg/Kg, Study Day 9) was 170 mg/dL. For the same molecule, the Glucose (Ave, 80 mg/Kg, Study Day 14) was 127 mg/dL, the Glucose (Ave, 80 mg/Kg, Study Day 17) was 134 mg/dL and the Glucose (Ave, 80 mg/Kg, Study Day 21) was 172 mg/dL. The Glucose (Ave, 80 mg/Kg, Study Day 25) was 207 mg/dL, the Glucose (Ave, 80 mg/Kg, Study Day 28) was 227 mg/dL and the Glucose (Ave, 80 mg/Kg, Study Day 33) was 206 mg/dL. The Glucose (Ave, 80 mg/Kg, Study Day 40) was 141 mg/dL, the Glucose (Ave, 80 mg/Kg, Study Day 47) was 77 mg/dL and the Glucose (Ave, 80 mg/Kg, Study Day 49) was 185 mg/dL. It also gave a Glucose (Ave, 80 mg/Kg, Study Day 54) of 252 mg/dL, a Glucose (Ave, 80 mg/Kg, Study Day 61) of 81 mg/dL and a Glucose (Ave, 80 mg/Kg, Study Day 69) of 81 mg/dL. The Glucose (Ave, 100 mg/Kg, Study Day 0) was 132 mg/dL, the Glucose (Ave, 100 mg/Kg, Study Day 1) was 141 mg/dL and the Glucose (Ave, 100 mg/Kg, Study Day 7) was 130 mg/dL. For the same molecule, the Glucose (Ave, 100 mg/Kg, Study Day 9) was 130 mg/dL, the Glucose (Ave, 100 mg/Kg, Study Day 14) was 95 mg/dL and the Glucose (Ave, 100 mg/Kg, Study Day 17) was 133 mg/dL. The Glucose (Ave, 100 mg/Kg, Study Day 21) was 101 mg/dL, the Glucose (Ave, 100 mg/Kg, Study Day 25) was 125 mg/dL and the Glucose (Ave, 100 mg/Kg, Study Day 28) was 153 mg/dL. It also gave a Glucose (Ave, 100 mg/Kg, Study Day 33) of 170 mg/dL, a Glucose (Ave, 100 mg/Kg, Study Day 40) of 130 mg/dL and a Glucose (Ave, 100 mg/Kg, Study Day 47) of 111 mg/dL. It also gave a Glucose (Ave, 100 mg/Kg, Study Day 49) of 98 mg/dL, a Glucose (Ave, 100 mg/Kg, Study Day 54) of 81 mg/dL and a Glucose (Ave, 100 mg/Kg, Study Day 61) of 104 mg/dL. The Glucose (Ave, 100 mg/Kg, Study Day 69) was 92 mg/dL, the Glucose (Patient 1, 10 mg/kg, Study Day 0) was 180 mg/dL and the Glucose (Patient 1, 10 mg/kg, Study Day 7) was 229 mg/dL. The Glucose (Patient 1, 10 mg/kg, Study Day 9) was 170 mg/dL, the Glucose (Patient 1, 10 mg/kg, Study Day 17) was 67 mg/dL and the Glucose (Patient 1, 10 mg/kg, Study Day 21) was 82 mg/dL. For the same molecule, the Glucose (Patient 1, 10 mg/kg, Study Day 25) was 82 mg/dL, the Glucose (Patient 1, 10 mg/kg, Study Day 33) was 84 mg/dL and the Glucose (Patient 1, 10 mg/kg, Study Day 40) was 136 mg/dL. It also gave a Glucose (Patient 1, 10 mg/kg, Study Day 47) of 58 mg/dL, a Glucose (Patient 1, 10 mg/kg, Study Day 49) of 147 mg/dL and a Glucose (Patient 1, 10 mg/kg, Study Day 54) of 180 mg/dL. The Glucose (Patient 1, 10 mg/kg, Study Day 61) was 125 mg/dL, the Glucose (Patient 1, 10 mg/kg, Study Day 69) was 104 mg/dL and the Glucose (Patient 2, 1, 10 mg/kg, Study Day 0) was 99 mg/dL. It also gave a Glucose (Patient 2, 1, 10 mg/kg, Study Day 1) of 78 mg/dL, a Glucose (Patient 2, 1, 10 mg/kg, Study Day 7) of 85 mg/dL and a Glucose (Patient 2, 1, 10 mg/kg, Study Day 9) of 83 mg/dL. It also gave a Glucose (Patient 2, 1, 10 mg/kg, Study Day 14) of 81 mg/dL.
